From publication PMC10954470
No constants are given. Whether binding was seen depends on the method and setting. Binding seen in cells or lysates may run through a third protein. Some entries that bind do so weakly or less than the wild type. Where a sequence is shown, tags or fusion partners need not be part of it.

Protein sequences, listed by entry. Tags and fused reporters are not part of them.
UniProt P38110: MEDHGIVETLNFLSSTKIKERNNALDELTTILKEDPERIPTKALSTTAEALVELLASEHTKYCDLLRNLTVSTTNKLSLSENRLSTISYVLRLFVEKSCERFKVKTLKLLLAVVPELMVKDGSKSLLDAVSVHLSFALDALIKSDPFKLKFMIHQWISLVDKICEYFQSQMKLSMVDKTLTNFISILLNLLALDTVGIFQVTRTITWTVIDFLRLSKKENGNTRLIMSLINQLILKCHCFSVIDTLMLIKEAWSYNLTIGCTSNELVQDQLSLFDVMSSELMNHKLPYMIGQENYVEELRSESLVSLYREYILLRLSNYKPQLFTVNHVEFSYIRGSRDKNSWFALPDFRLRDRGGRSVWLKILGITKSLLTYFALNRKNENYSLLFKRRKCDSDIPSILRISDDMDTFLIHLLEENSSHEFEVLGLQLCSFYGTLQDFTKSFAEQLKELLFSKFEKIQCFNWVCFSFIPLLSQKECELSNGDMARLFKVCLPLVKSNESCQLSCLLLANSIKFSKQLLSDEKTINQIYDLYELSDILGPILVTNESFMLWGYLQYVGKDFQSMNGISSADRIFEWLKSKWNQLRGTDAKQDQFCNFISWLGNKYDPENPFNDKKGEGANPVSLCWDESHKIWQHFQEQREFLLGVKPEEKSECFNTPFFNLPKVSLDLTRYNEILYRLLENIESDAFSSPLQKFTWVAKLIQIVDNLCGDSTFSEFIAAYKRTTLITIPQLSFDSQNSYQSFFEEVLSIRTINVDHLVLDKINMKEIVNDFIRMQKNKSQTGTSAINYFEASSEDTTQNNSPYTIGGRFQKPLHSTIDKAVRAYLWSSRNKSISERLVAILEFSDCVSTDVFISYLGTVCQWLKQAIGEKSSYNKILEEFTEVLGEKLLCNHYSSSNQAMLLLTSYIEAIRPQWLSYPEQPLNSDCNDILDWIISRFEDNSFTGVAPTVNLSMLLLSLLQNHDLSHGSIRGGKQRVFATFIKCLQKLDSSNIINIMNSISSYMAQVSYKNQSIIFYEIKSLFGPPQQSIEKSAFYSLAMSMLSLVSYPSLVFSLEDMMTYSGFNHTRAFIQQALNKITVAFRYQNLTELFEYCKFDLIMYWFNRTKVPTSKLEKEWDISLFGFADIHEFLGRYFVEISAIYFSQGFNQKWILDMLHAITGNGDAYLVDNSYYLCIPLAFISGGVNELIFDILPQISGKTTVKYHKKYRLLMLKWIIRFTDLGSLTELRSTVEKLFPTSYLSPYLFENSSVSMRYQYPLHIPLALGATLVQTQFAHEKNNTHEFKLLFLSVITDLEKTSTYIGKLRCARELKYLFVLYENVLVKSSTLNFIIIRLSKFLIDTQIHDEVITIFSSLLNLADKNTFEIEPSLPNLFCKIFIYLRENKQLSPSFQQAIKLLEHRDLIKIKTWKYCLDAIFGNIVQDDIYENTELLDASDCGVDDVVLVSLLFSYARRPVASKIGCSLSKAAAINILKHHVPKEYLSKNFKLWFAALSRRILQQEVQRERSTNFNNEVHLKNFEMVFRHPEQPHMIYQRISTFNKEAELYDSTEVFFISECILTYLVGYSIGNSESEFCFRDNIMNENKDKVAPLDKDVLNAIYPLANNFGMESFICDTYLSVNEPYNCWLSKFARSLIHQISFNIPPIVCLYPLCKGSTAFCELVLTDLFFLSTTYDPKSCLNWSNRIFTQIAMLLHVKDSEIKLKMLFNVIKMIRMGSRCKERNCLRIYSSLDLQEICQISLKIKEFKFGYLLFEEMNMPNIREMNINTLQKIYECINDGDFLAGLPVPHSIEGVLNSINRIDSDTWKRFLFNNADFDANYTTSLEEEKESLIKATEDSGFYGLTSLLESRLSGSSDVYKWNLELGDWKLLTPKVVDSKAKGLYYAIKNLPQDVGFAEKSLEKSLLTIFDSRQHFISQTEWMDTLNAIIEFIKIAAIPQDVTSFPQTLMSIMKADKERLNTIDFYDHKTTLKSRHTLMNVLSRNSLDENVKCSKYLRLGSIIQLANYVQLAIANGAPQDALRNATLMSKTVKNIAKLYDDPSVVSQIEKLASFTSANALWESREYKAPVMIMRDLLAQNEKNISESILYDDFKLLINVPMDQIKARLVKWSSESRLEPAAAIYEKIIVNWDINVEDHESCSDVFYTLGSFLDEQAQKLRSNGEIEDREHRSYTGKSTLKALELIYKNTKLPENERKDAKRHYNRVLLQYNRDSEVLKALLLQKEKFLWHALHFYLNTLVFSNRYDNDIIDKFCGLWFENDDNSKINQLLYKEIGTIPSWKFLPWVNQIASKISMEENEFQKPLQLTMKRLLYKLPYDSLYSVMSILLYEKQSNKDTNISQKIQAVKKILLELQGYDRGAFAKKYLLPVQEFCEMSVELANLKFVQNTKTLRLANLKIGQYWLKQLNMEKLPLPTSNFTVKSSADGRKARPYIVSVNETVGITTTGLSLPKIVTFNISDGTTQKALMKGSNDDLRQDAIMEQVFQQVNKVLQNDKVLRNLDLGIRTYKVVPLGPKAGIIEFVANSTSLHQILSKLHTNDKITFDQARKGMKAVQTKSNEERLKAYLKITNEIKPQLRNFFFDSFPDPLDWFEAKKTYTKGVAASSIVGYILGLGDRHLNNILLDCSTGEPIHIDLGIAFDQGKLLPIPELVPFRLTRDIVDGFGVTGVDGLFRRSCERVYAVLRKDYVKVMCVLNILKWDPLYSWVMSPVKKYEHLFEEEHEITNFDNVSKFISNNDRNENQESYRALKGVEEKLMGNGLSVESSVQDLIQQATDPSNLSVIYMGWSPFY

T1: Rad50-HA (Rad50, hemagglutinin-tagged at its native genomic locus) (S. cerevisiae) (UniProt P12753)
T1 sequence: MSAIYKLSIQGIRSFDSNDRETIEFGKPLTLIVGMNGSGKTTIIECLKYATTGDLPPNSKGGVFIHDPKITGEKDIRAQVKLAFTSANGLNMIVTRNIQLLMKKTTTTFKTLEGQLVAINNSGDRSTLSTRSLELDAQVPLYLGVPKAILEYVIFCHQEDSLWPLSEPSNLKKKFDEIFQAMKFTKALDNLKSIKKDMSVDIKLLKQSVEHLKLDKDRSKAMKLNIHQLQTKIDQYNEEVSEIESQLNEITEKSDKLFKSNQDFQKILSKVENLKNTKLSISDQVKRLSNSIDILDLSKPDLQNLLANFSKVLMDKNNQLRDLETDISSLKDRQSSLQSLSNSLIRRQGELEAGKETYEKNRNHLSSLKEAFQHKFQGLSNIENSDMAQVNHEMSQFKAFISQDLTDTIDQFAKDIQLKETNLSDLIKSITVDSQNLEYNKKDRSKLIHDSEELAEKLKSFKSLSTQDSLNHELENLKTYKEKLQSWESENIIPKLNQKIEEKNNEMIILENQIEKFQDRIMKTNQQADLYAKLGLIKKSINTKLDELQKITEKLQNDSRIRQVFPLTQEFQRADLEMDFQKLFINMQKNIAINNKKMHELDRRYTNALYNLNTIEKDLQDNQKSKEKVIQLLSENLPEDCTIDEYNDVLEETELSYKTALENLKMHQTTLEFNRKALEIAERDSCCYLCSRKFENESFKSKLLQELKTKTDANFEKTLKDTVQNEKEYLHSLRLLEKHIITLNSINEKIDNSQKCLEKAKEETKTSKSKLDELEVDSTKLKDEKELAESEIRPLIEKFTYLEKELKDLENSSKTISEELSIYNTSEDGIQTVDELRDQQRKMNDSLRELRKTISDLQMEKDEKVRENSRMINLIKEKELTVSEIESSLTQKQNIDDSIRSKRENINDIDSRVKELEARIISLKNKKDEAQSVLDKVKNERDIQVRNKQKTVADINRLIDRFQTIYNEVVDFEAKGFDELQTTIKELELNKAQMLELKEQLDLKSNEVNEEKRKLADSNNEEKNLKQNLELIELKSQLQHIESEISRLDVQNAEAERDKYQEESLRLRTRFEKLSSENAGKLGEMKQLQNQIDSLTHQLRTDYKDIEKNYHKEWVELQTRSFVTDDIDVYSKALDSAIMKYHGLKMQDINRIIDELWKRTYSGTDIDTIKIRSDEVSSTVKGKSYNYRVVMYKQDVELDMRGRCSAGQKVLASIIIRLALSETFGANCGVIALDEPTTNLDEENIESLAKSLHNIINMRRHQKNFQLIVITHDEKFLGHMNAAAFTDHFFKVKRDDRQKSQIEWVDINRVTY


Key:
[1] = target: Tel1-HA (HA-tagged Tel1) (S. cerevisiae) (UniProt P38110); assay: co-IP; Tel1-HA immunoprecipitated with anti-HA (12CA5) and Protein G-Dynabeads from total yeast protein extracts of wild-type and rif2-S6E cells, 2 h at 4°C; 50 mM HEPES pH 7.5, 140 mM NaCl, 1 mM EDTA, 10% glycerol; blot with anti-Myc (9E10)
[2] = target: T1, Rad50-HA (Rad50, hemagglutinin-tagged at its native genomic locus) (S. cerevisiae); assay: co-IP; Rad50-HA immunoprecipitated with anti-HA (12CA5) and Protein G-Dynabeads from total yeast protein extracts, 2 h at 4°C; 50 mM HEPES pH 7.5, 140 mM NaCl, 1 mM EDTA, 10% glycerol; blot with anti-Myc (9E10)

Row | binding [1] | Binder | binding [2]
1 | binds | Rad50-Myc (Myc-tagged Rad50) (protein, UniProt P12753 1-1312) MSAIYKLSIQGIRSFDSNDRETIEFGKPLTLIVGMNGSGKTTIIECLKYATTGDLPPNSKGGVFIHDPKITGEKDIRAQVKLAFTSANGLNMIVTRNIQLLMKKTTTTFKTLEGQLVAINNSGDRSTLSTRSLELDAQVPLYLGVPKAILEYVIFCHQEDSLWPLSEPSNLKKKFDEIFQAMKFTKALDNLKSIKKDMSVDIKLLKQSVEHLKLDKDRSKAMKLNIHQLQTKIDQYNEEVSEIESQLNEITEKSDKLFKSNQDFQKILSKVENLKNTKLSISDQVKRLSNSIDILDLSKPDLQNLLANFSKVLMDKNNQLRDLETDISSLKDRQSSLQSLSNSLIRRQGELEAGKETYEKNRNHLSSLKEAFQHKFQGLSNIENSDMAQVNHEMSQFKAFISQDLTDTIDQFAKDIQLKETNLSDLIKSITVDSQNLEYNKKDRSKLIHDSEELAEKLKSFKSLSTQDSLNHELENLKTYKEKLQSWESENIIPKLNQKIEEKNNEMIILENQIEKFQDRIMKTNQQADLYAKLGLIKKSINTKLDELQKITEKLQNDSRIRQVFPLTQEFQRADLEMDFQKLFINMQKNIAINNKKMHELDRRYTNALYNLNTIEKDLQDNQKSKEKVIQLLSENLPEDCTIDEYNDVLEETELSYKTALENLKMHQTTLEFNRKALEIAERDSCCYLCSRKFENESFKSKLLQELKTKTDANFEKTLKDTVQNEKEYLHSLRLLEKHIITLNSINEKIDNSQKCLEKAKEETKTSKSKLDELEVDSTKLKDEKELAESEIRPLIEKFTYLEKELKDLENSSKTISEELSIYNTSEDGIQTVDELRDQQRKMNDSLRELRKTISDLQMEKDEKVRENSRMINLIKEKELTVSEIESSLTQKQNIDDSIRSKRENINDIDSRVKELEARIISLKNKKDEAQSVLDKVKNERDIQVRNKQKTVADINRLIDRFQTIYNEVVDFEAKGFDELQTTIKELELNKAQMLELKEQLDLKSNEVNEEKRKLADSNNEEKNLKQNLELIELKSQLQHIESEISRLDVQNAEAERDKYQEESLRLRTRFEKLSSENAGKLGEMKQLQNQIDSLTHQLRTDYKDIEKNYHKEWVELQTRSFVTDDIDVYSKALDSAIMKYHGLKMQDINRIIDELWKRTYSGTDIDTIKIRSDEVSSTVKGKSYNYRVVMYKQDVELDMRGRCSAGQKVLASIIIRLALSETFGANCGVIALDEPTTNLDEENIESLAKSLHNIINMRRHQKNFQLIVITHDEKFLGHMNAAAFTDHFFKVKRDDRQKSQIEWVDINRVTY | –
2 | – | Rif2-Myc (wild-type Rif2, epitope-tagged at its native genomic locus) (protein, UniProt Q06208 1-395) MEHVDSDFAPIRRSKKVVDSDKIVKAISDDLEQKNFTVLRKLNLVPIKKSVSSPKVCKPSPVKERVDHVFYQKFKSMALQELGTNYLSISYVPSLSKFLSKNLRSMKNCIVFFDKVEHIHQYAGIDRAVSETLSLVDINVVIIEMNDYLMKEGIQSSKSKECIESMGQASYSGQLDFEASEKPSNHTSDLMMMVMRKINNDESIDHIVYFKFEQLDKLSTSTIIEPSKLTEFINVLSVLEKSNNIAFKVLIYSNNVSISSLLSTSLKKKLNTKYTVFEMPILTCAQEQEYLKKMIKFTFDSGSKLLQSYNSLVTCQLNNKESNLAIFFEFLKVFPHPFTYLFNAYTEIIVQSRTFDELLDKIRNRLTIKNYPHSAYNFKKNQRLPLKLTRKVHDR | binds
